Earlier results in patent US12708613B2, “Methods for improving physical exercise performance” (NOMIO NUTRITION AB, priority 2020, dated 2026).
For at least one compound, name, drawing or mass did not settle the structure.

Settings: acute; decreasing lactate accumulation

Structure (SMILES): O=C(O)C(Cl)Cl [dichloroacetate]
- exercise performance: acutely improves performance
